The text below walks through data of article PMC9950477.

Amino acid sequences for entries named in this document (tags omitted).
UniProt O43248: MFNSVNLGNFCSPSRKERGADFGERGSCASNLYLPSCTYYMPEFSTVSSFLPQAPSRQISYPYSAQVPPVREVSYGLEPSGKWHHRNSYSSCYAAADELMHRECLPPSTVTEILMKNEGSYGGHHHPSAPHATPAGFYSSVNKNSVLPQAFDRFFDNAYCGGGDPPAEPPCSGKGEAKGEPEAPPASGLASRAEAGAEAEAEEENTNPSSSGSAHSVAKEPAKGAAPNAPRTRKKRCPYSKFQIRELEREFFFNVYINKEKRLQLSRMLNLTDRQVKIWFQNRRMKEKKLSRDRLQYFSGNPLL

In this test the target is T1, ubiquitin-specific protease 8 (USP8) (UniProt P40818).
T1 sequence: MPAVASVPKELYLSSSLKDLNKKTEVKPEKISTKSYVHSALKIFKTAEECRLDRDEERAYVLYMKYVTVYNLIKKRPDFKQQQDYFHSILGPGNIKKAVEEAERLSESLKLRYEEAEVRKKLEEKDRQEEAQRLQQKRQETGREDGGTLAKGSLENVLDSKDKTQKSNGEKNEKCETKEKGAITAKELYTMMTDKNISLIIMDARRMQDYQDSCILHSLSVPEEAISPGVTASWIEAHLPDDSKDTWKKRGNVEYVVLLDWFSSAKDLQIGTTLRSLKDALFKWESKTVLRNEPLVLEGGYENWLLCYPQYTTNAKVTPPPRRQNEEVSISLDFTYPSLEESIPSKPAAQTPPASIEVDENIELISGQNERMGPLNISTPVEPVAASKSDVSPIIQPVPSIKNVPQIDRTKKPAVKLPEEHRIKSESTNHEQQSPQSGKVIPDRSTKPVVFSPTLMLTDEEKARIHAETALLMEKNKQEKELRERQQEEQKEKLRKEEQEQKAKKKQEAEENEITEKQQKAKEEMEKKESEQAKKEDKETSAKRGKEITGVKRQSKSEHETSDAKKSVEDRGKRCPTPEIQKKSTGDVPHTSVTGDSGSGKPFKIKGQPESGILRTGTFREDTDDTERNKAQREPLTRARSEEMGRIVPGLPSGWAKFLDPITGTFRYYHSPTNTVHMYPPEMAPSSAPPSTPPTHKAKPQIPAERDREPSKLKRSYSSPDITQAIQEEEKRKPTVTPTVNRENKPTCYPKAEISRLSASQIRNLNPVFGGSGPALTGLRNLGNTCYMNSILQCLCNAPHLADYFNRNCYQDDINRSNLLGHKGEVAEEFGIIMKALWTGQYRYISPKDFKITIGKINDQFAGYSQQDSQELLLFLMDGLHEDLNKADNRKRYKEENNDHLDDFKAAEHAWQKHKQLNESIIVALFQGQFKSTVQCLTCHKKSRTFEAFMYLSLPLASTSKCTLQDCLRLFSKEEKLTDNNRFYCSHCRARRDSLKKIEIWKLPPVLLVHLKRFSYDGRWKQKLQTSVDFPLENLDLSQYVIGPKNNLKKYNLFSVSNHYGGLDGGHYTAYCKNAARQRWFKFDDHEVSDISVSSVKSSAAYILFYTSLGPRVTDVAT
Description: co-IP; cell lysate in IP lysis buffer with protease inhibitor, 2000 μg protein, 1 μl primary antibody or IgG, Protein A + G Agarose, 4 °C overnight, washed with cold PBS three times, detected by blot; cell line and precipitating antibody not given.

These are yes or no findings as the source states them, for the method shown. In cells and extracts the contact can be indirect.

Take “Homeobox C11 (HOXC11) (from UniProt O43248 1-304)”: the binding entry was “no binding”.
